From paper PMC8490526
These are yes or no findings as the source states them, for the method shown. In cells and extracts the contact can be indirect. Some results given as binding are weak or reduced against the parent protein; the word gives no strength. For some assays here: Tags and fused reporters may be left off the sequences shown. Each block holds one binder with its values, some of them ahead of it.

Key:
[1] = target: T1, TANK-binding kinase 1 (TBK1), endogenous in BV2 cells (mouse (endogenous in BV2)) (UniProt Q9WUN2); test: co-IP; endogenous proteins in BV2 cells infected with HSV-1 (MOI 1), late phase of infection (24 h); also after transfection of LNA-Ctrl or LNA-466 (knock-down of linc-AhRA reduced the interaction); IP lysis buffer, overnight at 4 °C, immunoblot
T1 sequence: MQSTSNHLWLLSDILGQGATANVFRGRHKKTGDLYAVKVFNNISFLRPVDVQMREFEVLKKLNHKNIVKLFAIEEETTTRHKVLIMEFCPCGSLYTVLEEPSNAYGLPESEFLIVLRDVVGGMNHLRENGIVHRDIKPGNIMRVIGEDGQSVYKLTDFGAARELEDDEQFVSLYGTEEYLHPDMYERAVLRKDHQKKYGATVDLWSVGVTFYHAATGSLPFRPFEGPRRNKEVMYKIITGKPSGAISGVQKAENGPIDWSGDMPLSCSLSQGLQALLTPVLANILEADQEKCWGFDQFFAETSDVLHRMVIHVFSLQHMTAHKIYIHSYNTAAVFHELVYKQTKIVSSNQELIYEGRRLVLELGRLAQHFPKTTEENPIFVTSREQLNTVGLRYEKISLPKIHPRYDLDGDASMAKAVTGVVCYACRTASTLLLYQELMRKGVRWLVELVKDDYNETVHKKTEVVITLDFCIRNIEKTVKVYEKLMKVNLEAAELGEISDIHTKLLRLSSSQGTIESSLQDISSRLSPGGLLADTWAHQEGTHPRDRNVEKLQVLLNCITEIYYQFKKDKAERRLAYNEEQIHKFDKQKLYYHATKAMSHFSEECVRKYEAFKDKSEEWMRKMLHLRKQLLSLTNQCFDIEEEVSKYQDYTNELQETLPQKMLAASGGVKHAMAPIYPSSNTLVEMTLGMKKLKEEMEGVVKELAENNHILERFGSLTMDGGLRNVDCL

[2] = target: T2, HA-TBK1 (mouse (cDNA of BV2 cells)) (UniProt Q9WUN2); test: co-IP; HEK 293T cells co-transfected with FLAG-TRIM27 and HA-TBK1, with or without linc-AhRA or its 117nt fragment, for 42 h, then MG-132 (10 μM) for another 6 h; immunoblot
T2 sequence: T1 sequence

binding [1]: binds
B1: tripartite motif-containing 27 (TRIM27), endogenous in BV2 cells (protein, UniProt Q62158 1-513)
chain: MASGSVAECLQQETTCPVCLQYFVEPMMLDCGHNICCACLARCWGAAETNVSCPQCRETFPQRHMRPNRHLANVTQLVKQLRTERPSGPGGEMGVCEKHREPLKLYCEQDQMPICVVCDRSREHRGHSVLPLEEAVEGFKEQIQNRLDHLRRVKDLKKRRRAQGEQARAELLSLTQMEREKIVWEFEQLYHSLKEHEYRLLARLEELDLAIYNSINGAITQFSCNISHLSGLIAQLEEKQQQPTRELLQDIGDTLSRAERIRIPEPWITPPDLQEKIHIFAQKCLFLTESLKQFTEKMQSDMEKIQELREAQLYSVDVTLDPDTAYPSLILSDNLRQVRYSYLQQDLPDNPERFNLFPCVLGSPCFIAGRHYWEVEVGDKAKWTIGVCEDSVCRKGGVTSAPQNGFWAVSLWYGKEYWALTSPMTALPLRTPLQRVGIFLDYDAGEVSFYNVTERCHTFTFSHATFCGPVRPYFSLSYSGGKSAAPLIICPMSGIDGFSGHVGNHGHSMETSP

binding [2]: binds
B2: FLAG-TRIM27 (protein, UniProt Q62158 1-513)
chain: B1 chain
